Results from patent US9580423B2, “Bicyclic heterocycles as FGFR4 inhibitors” (Incyte Corporation, priority 2015, dated 2017).
At least one compound was matched to its structure with a doubt left.

By UniProt entry, the sequences of proteins in these tests, tags left out. Residues count along the entry.
UniProt P22455, 22-802: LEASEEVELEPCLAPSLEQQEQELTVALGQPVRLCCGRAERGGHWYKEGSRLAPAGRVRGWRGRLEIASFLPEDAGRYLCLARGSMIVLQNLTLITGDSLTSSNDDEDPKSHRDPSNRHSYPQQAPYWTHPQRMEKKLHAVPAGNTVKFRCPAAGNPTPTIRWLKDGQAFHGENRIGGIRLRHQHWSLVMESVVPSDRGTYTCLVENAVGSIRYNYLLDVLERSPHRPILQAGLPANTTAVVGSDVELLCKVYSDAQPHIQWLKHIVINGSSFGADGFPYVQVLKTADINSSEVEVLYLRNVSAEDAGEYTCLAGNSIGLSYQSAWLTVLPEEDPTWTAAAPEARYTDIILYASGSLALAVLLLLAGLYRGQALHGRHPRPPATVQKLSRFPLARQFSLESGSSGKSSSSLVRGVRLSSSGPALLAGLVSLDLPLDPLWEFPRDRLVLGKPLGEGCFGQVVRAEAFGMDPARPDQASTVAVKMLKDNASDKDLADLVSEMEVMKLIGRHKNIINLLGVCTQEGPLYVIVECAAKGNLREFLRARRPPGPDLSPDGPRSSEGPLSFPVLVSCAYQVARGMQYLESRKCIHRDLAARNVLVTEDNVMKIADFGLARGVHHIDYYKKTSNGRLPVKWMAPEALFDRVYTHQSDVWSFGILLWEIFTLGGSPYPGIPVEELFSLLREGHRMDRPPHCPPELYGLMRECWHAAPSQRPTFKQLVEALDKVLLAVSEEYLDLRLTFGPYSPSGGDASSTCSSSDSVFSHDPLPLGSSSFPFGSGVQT

Biological target: FGFR4 (Homo sapiens (Human), UniProt P22455)
Test: FGFR Enzymatic Assay (FRET peptide phosphorylation), FGFR4
Conditions: IC50 ratio showing FGFR4 selectivity; pre-incubated for 4 hours

C=CC(=O)Nc1cnn(C[C@@H]2CCCO2)c1-c1cc2c(cn1)CN(c1c(F)c(OC)cc(OC)c1F)C(=O)C21CC1 [Example 31, (S)-(5-(2′-(2,6-difluoro-3,5-dimethoxyphenyl)-3′-oxo-2′,3′-dihydro-1′H-spiro[cyclopropane-1,4′-[2,7]naphthyridine]-6′-yl)-1-((tetrahydrofuran-2-yl)methyl)-1H-pyrazol-4-yl)acrylamide]
>100: FGFR1/FGFR4 IC50 ratio | FGFR2/FGFR4 IC50 ratio | FGFR3/FGFR4 IC50 ratio
